PubChem BioAssay AID1347423 (Functional Genomics Laboratory (NCATS/FGL), 2020)
Hit rate of the full screen: of about 52,000 sequences, about 210 (0.4%) were called active.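 The calls were made as follows: active = gene whose silencing raises cell survival under the drug, median off-target-corrected z-score across its silencing RNAs 2 or more; inactive = the rest.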 Some of the results follow.

Assay: Resistance to Poly (ADP-Ribose) Polymerase inhibitor: Gene Identification via Genome-wide siRNA Screen
Settings: mouse BRCA2 R2336H ES cells, olaparib, CellTiter-Glo viability; active compounds read high
Procedure, shortened: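 Genome-wide siRNA screen (3 siRNAs/gene, 20 nM) in mouse ES cells carrying hypomorphic BRCA2 R2336H; olaparib 500 nM added 48 h post-transfection, CellTiter-Glo viability 72 h later. Normalized to plate-median negative control; MAD z-scores, gene median, seed-adjusted.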
With GGGUCUGCAUAGGUUGUUATT against Epm2a the z-score was inactive: 0.192.
For GGAAAUGCGUCAAAAGACUTT against H2afz, the z-score was inactive: 0.234.
With CGGCUAGAUGAUCCUACCUTT against Tsga13 the z-score was inactive: -2.22.
For GGUGCAUAAACGAUGUGGATT against Bat9, the z-score was inactive: 0.642.
With “GCCGAACGUGUUUAAACUCTT against D430018P08” the z-score was inactive: -0.751.
For GCCGUCUUAACACCUAUGGTT against Olfr690, the z-score was inactive: -3.04.
With CCGUCUAUACCUUAAUUGATT against Il28ra the z-score was inactive: 0.871.
For GGGCCUUAGGCUAUUCCUATT against Otub2, the z-score was inactive: -0.679.
For “GGCACUAAGGAAGAAAAAATT against 4933433C09Rik”, the z-score was inactive: -1.23.
In the case of GCUCAUCUUAGACGAGGCCTT against BC027373, the z-score is reported as inactive: 0.227.
In the case of CUCUAAGAAACAUGGUGGCTT against Sod1, the z-score is reported as inactive: 0.0934.
With “GGAAAUACAGCUCUUGCUCTT against 5730405I09Rik” the z-score was inactive: -0.823.
In the case of GGAGAAGCAGGCCUUACAGTT against Tna, the z-score is reported as inactive: -0.787.
For “CCCGGACAUCAUAAUCAGUTT against 6330579B17Rik”, the z-score was inactive: -0.929.
With GCAAUGCUCUAAUCCACUCTT against Nxf the z-score was inactive: -0.131.
In the case of “GCAGCUAAACACCGAUAUGTT against 1700027M21Rik”, the z-score is reported as inactive: 1.27.
For CCAGCAUAUCUACUGUUCUTT against V1rf2, the z-score was inactive: -0.647.
With GGUUGGACAGAAACAUCAGTT against Rab7l1 the z-score was inactive: 3.01.
In the case of GCAACAACCGCACAUCUCATT against Cdc26, the z-score is reported as inactive: -1.48.
With “GGUUGGAAUUGUGCAAUAATT against A630050E13Rik” the z-score was inactive: -1.86.
For GAUUUCUAUACAGCCUAUCTT against Olfr799, the z-score was inactive: -1.27.
With GCAGAUUUGAAUUCAGACATT against Mup4 the z-score was inactive: -0.0856.
For “CUUAGACCCAAUUCAAUUCTT against A830025F02Rik”, the z-score was inactive: 3.01.
In the case of GGAAACUCCAACUUGUUUGTT against Ankra2, the z-score is reported as inactive: -0.105.
With “GGGUUUUUCAUGUGUUUACTT against 2400008B06Rik” the z-score was inactive: -1.08.
With GGUGAGCAUCGUGUUCAUCTT against Galntl4 the z-score was inactive: 1.65.
With “GGAGAUUUAACUGAAAGACTT against D12Ertd748e” the z-score was inactive: -0.651.
With GGAAAAAGCCAAUUAUGUCTT against Fbxl2 the z-score was inactive: 1.22.
For GGUUUCUGGAAGAAACUGGTT against Rpo1-4, the z-score was inactive: 1.86.
In the case of GGAUGAGGACACCAUUGAUTT against Sumo3, the z-score is reported as inactive: -1.86.
For GGGAGAACCGGAUGAGAUUTT against Itpa, the z-score was inactive: -1.22.
With GGGUCAUCUUACCACAGUUTT against Nptxr the z-score was inactive: -0.0266.
With CCACCUCCUCUCGAUACAATT against Zfp36 the z-score was inactive: -1.04.
With GGCCUCAUCUUGAAUAUUUTT against Hsd17b3 the z-score was inactive: -0.342.
For GUUCUGAAAAUAGAAUAAUTT against V1rc29, the z-score was inactive: 0.713.
In the case of GGAAAGAUGUGGUCCAGCUTT against Sirt3, the z-score is reported as inactive: -1.23.
For GGAUACCUGAAAAUUGAUATT against Npr1, the z-score was inactive: -0.267.
With GGAGUUUUUAUUCAAGGAATT against Slc35b3 the z-score was inactive: 0.606.
For GCCUCAACUCAAGCCUUCATT against Olfr525, the z-score was inactive: -1.09.
With “CCAACUAAUCCCAUAUUCCTT against 1200015A22Rik” the z-score was inactive: 0.294.
With “GGUCAUUUGUUGUAUGUAGTT against C230004F18Rik” the z-score was inactive: 1.25.
For “GGACUGCCUUAAUUAAAGUTT against 1810063B05Rik”, the z-score was inactive: -0.477.
With GGUCACAUUUAAUGUCACATT against Itgam the z-score was inactive: 0.129.
For GGAGGAUCCUCUAAAACAGTT against Slc23a3, the z-score was inactive: -0.453.
With GGCAGUUUGGACAGCAAGATT against Mybl2 the z-score was inactive: 0.628.
For “GGCAAUUCACUGUGAGUAATT against 2310038H17Rik”, the z-score was inactive: 0.159.
With GGGAAAAUCCCAAAACUGUTT against Serpinb1a the z-score was inactive: 1.01.
For GGCAAAAAACAAAGACCUUTT against Plfr, the z-score was inactive: 1.01.
For GGAGGUAUUCACAGAACUGTT against U2af1l4, the z-score was inactive: -1.78.
In the case of GCAACUAUCUGCUUAUUUATT against BC019731, the z-score is reported as inactive: 2.25.
For GGUCUUGCUGAUCAACAACTT against Bai2, the z-score was inactive: 1.56.
For GGACACAGUCAGACAAAUCTT against Olfr1161, the z-score was inactive: -0.515.
For “GGCCUCCAAAUGAACAGCATT against 6720458F09Rik”, the z-score was inactive: 1.74.
For GGCAUGGCUGGCAAAAACATT against Myd116, the z-score was inactive: 2.22.
For GGUGAUUGCCCACAAUCAGTT against Mthfs, the z-score was inactive: -0.726.
In the case of GGUUUUCACCCUGAAUGUGTT against Siglecl1, the z-score is reported as inactive: -0.536.
For “GGCCUGUGAGCUAUGUAUCTT against 2310002B14Rik”, the z-score was inactive: -0.333.
In the case of GGUGUCUUAUGAGCAAUAUTT against Pdcd6, the z-score is reported as inactive: 0.346.
For “GGCUGUUUGCGUGAUAGACTT against 1200011O22Rik”, the z-score was inactive: 1.22.
With CCGUGCAGAUUAACUUCUUTT against Plk1 the z-score was inactive: -2.48.
With GCUAAGACACGAUAAACUUTT against Yes the z-score was inactive: 0.376.
For GGUCCUACUUACUACUGCCTT against AA409316, the z-score was inactive: -0.959.
For GGUUAUGCAUUACUCUCUUTT against Prkdc, the z-score was inactive: 0.32.
With GGAGAUCAACAUCUAUCAGTT against 1-Sep the z-score was inactive: 0.556.
For “GGGAAAAACACUUCUCACUTT against A530082C11Rik”, the z-score was inactive: -0.215.
In the case of GCAACCUCUCCUCUCUAGATT against Olfr15, the z-score is reported as inactive: 0.597.
For GGUUCUUACUUGUAAAUAGTT against Sdad1, the z-score was inactive: -0.462.
In the case of GGUCUCACAAAAACAGUUCTT against Casq2, the z-score is reported as inactive: -0.446.
For GGAAGUGUGACAGAAUGCGTT against Loxl3, the z-score was inactive: 0.0492.
In the case of GGAGCAUGGAUAAUUACAGTT against Trpm6, the z-score is reported as inactive: -1.34.
In the case of GGAGUUUCUCUUUAAUCCUTT against Hoxc8, the z-score is reported as inactive: 0.862.
In the case of “GGAGCAAUGGCUAGCAGUUTT against 3110040N11Rik”, the z-score is reported as inactive: 2.38.
With GCAACUAUCCACUCUCUGCTT against Grcc2f the z-score was inactive: -2.34.
With GGCAGUCGAUACAAACUUUTT against Fto the z-score was inactive: -0.174.
With “GGCCAUCGCACUUAAACUUTT against 1700123K08Rik” the z-score was inactive: 0.275.
In the case of GGAGAAAAGAGUUUGCCCGTT against Wfdc12, the z-score is reported as inactive: 0.709.
With GGGCUUGUUUUUGCACUUATT against Blcap the z-score was inactive: 0.2.
For GCCCAUGUGUAAUACAUUUTT against Prps1, the z-score was inactive: 0.16.
With GGGUGAAGGACAAGAAAAUTT against Hoxd13 the z-score was inactive: -1.09.
With GGCAGCCAUAAUCACAAUGTT against LOC435285 the z-score was inactive: 1.45.
With GGAAGACAUAUUUCAACAGTT against Ehhadh the z-score was inactive: 0.4.
In the case of GGGACUCACAUUUAAACAATT against Rg9mtd2, the z-score is reported as inactive: -0.826.
With GGGAGAUAAAAAGUUAAGGTT against Bclaf1 the z-score was inactive: 0.0648.
In the case of GCAUUUGGUUCGACAUAUATT against Pcnx, the z-score is reported as inactive: 0.533.
In the case of GGACUUUUCUUUUGGAAGGTT against Nbl1, the z-score is reported as inactive: 0.0954.
For GGUCAAGUCAAUUACAGUUTT against Pdcd8, the z-score was inactive: -0.432.
In the case of GGUUGAUGGGUAAUAAACUTT against Nfatc4, the z-score is reported as inactive: 0.0528.
For “GGCCUCAAACUGAAUAUUATT against C730040N12Rik”, the z-score was inactive: 0.0416.
For GUUUGAAACUCACUGGAAATT against V1rg5, the z-score was inactive: 1.13.
With CCUUCAAAGUAACUCUUAGTT against AI467503 the z-score was inactive: -2.08.
In the case of “GGAACAGUUACGAAAAGUGTT against 5730409F24Rik”, the z-score is reported as inactive: -1.54.
In the case of GGAGACAUCUCAAAUGAUATT against Trim30, the z-score is reported as inactive: -0.567.
In the case of “GGUGCUAAGUUUUGUAUCUTT against 2410002M20Rik”, the z-score is reported as inactive: -0.555.
In the case of “GGGUAUAGCCAGUACCAACTT against 1500006O09Rik”, the z-score is reported as inactive: -1.91.
For “GGAGAAAUGAAGAUUGUGGTT against 1810021J13Rik”, the z-score was inactive: 0.618.
For GGAAUCCAUGCAGAAAUAATT against Pcdhga6, the z-score was inactive: 1.54.
In the case of “GGAGUUGGCCAUGUGGAAATT against 0610008N23Rik”, the z-score is reported as inactive: 0.21.
With GGCAGCUGGCUAUUUUCACTT against AI931714 the z-score was inactive: -0.739.
With GGUAUUUUGUAGCACUUAATT against Fgf20 the z-score was inactive: -1.14.
For “GGAAACUGUAAGUGUCAAUTT against 2600002E23Rik”, the z-score was inactive: 0.0757.
In the case of “CGGCUCGUACACAUGUGAATT against 5730592L21Rik”, the z-score is reported as inactive: -0.129.
In the case of “GGUAGAAAAAACACAAACGTT against 4930511A21Rik”, the z-score is reported as inactive: 0.174.
For GAGAGUGUGCUUCACACACTT against Olfr646, the z-score was inactive: -0.64.
